This note sets out measurements from the supplement of paper PMC4635364.

For test [1], the system named is ReNCell VM. Briefly: neuronal differentiation score (DCX+ cell fraction vs untreated, manual image score) (score (-3 to 3)); higher = more neuronal differentiation. Particulars: 2 uM, 2 weeks.
Test [2] relates to ReNCell VM. Kind of test: dopaminergic neuron differentiation score (TH+ cell fraction vs untreated, manual image score) (score (0 to 3)); higher = more TH+ dopaminergic neuron differentiation. To be noted: 2 uM, 4 weeks, BDNF 10 ng/ml + GDNF 10 ng/ml.

Counter-ions that a name gives are not always drawn. This is one part of the list. Single values are uncertain here, since repeats match poorly.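 Human fetal ventral-midbrain neural progenitor line ReNCell VM, differentiated without mitogens. Images stained for doublecortin (early neurons) or tyrosine hydroxylase (dopaminergic neurons) were scored by blinded raters against untreated wells (0 = no change). Repeats and both raters were averaged, and compounds averaging 2 or higher were picked as hits for retesting.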

In the case of `C[C@H]1C[C@H]2[C@@H]3CCC4=CC(=O)C=C[C@]4(C)[C@@]3(F)[C@@H](O)C[C@]2(C)[C@@]1(O)C(=O)CO` [Betamethasone], the neuronal differentiation score in the test on ReNCell VM [1] (library: LOPAC) and in the test with ReNCell VM [1] (library: Prestwick) was inactive: 0 each time. Further, the “dopaminergic neuron differentiation score” value in the test on ReNCell VM [2] (library: LOPAC) and in the test with ReNCell VM [2] (library: Prestwick) was inactive: 0 in each case.
Regarding `Cc1nc2sccn2c(=O)c1CCN1CCC(=C(c2ccc(F)cc2)c2ccc(F)cc2)CC1` [Ritanserin], the results for the neuronal differentiation score in the test with ReNCell VM [1] (library: LOPAC) and in the test with ReNCell VM [1] (library: Tocriscreen) were inactive: 0 and inactive: 1, respectively. Moreover, the “dopaminergic neuron differentiation score” value in the test with ReNCell VM [2] (library: LOPAC) and in the test on ReNCell VM [2] (library: Tocriscreen) was inactive: 0 each time.
In the case of `CC1(C)CCC2=C(O1)c1ccccc1C(=O)C2=O` [beta-lapachone], the neuronal differentiation score in the test with ReNCell VM [1] (library: Natural) and in the test on ReNCell VM [1] (library: Phytochemical) was inactive: 0 throughout. The “dopaminergic neuron differentiation score” value in the test with ReNCell VM [2] (library: Natural) and in the test with ReNCell VM [2] (library: Phytochemical) was inactive: 0 each time.
Turning to `CCn1cc(C(=O)O)c(=O)c2cc(F)c(N3CCNC(C)C3)c(F)c21` (stereo not given) [Lomefloxacin hydrochloride], the neuronal differentiation score in the test on ReNCell VM [1] (library: LOPAC) and in the test on ReNCell VM [1] (library: Prestwick) was inactive: 0 each time. The “dopaminergic neuron differentiation score” value in the test with ReNCell VM [2] (library: LOPAC) and in the test on ReNCell VM [2] (library: Prestwick) was inactive: 0 throughout.
On to `C[C@@]1(O)CCOC(=O)C1` [Mevalonic-D, L acid lactone], for which the neuronal differentiation score in the test with ReNCell VM [1] (library: Phytochemical) and in the test on ReNCell VM [1] (library: Prestwick) was inactive: 0 each time. In addition, the “dopaminergic neuron differentiation score” value in the test with ReNCell VM [2] (library: Phytochemical) and with ReNCell VM [2] (library: Prestwick) was inactive: 0 in each case.
Turning to `Cc1nc2ccccn2c(=O)c1CCN1CCC(C(=O)c2ccc(F)cc2)CC1` [Pirenperone], the neuronal differentiation score was active: 2 in the test with ReNCell VM [1] (library: LOPAC) and inactive: 0 with ReNCell VM [1] (library: Prestwick). In addition, the “dopaminergic neuron differentiation score” value with ReNCell VM [2] (library: LOPAC) and in the test on ReNCell VM [2] (library: Prestwick) was inactive: 0 throughout.
For `C[C@]12CCC(=O)C=C1CC[C@@H]1[C@@H]2C(=O)C[C@@]2(C)[C@H]1CC[C@]2(O)C(=O)CO` [Cortisone], the neuronal differentiation score with ReNCell VM [1] (library: LOPAC) and with ReNCell VM [1] (library: Prestwick) was inactive: 0 throughout. The “dopaminergic neuron differentiation score” value in the test with ReNCell VM [2] (library: LOPAC) and in the test with ReNCell VM [2] (library: Prestwick) was inactive: 0 each time.
For the compound `CC[N+](C)(C)Cc1ccccc1Br` [Bretylium tosylate], the neuronal differentiation score in the test with ReNCell VM [1] (library: LOPAC) and with ReNCell VM [1] (library: Prestwick) was inactive: 0 each time. In addition, the “dopaminergic neuron differentiation score” value with ReNCell VM [2] (library: LOPAC) and in the test with ReNCell VM [2] (library: Prestwick) was inactive: 0 throughout.
For `CCC1=C(C)CN(C(=O)NCCc2ccc(S(=O)(=O)NC(=O)N[C@H]3CC[C@H](C)CC3)cc2)C1=O` [Glimepiride], the neuronal differentiation score with ReNCell VM [1] (library: Prestwick) and with ReNCell VM [1] (library: Tocriscreen) was inactive: 0 each time. Moreover, the “dopaminergic neuron differentiation score” value in the test on ReNCell VM [2] (library: Prestwick) and with ReNCell VM [2] (library: Tocriscreen) was inactive: 0 each time.
`NC[C@@H]1O[C@H](O[C@H]2[C@@H](O)[C@H](O[C@@H]3[C@@H](O)[C@H](N)C[C@H](N)[C@H]3O[C@H]3O[C@H](CO)[C@@H](O)[C@H](O)[C@H]3N)O[C@@H]2CO)[C@H](N)[C@@H](O)[C@@H]1O` [Paromomycin sulfate]: the neuronal differentiation score in the test with ReNCell VM [1] (library: LOPAC) and in the test with ReNCell VM [1] (library: Prestwick) was inactive: 0 throughout. In addition, the “dopaminergic neuron differentiation score” value in the test on ReNCell VM [2] (library: LOPAC) and in the test with ReNCell VM [2] (library: Prestwick) was inactive: 0 each time.
For the compound `c1ccc2c(CC3=NCCN3)cccc2c1` [Naphazoline hydrochloride], the neuronal differentiation score in the test on ReNCell VM [1] (library: LOPAC) and in the test with ReNCell VM [1] (library: Prestwick) was inactive: 0 each time. Besides, the “dopaminergic neuron differentiation score” value in the test on ReNCell VM [2] (library: LOPAC) and in the test on ReNCell VM [2] (library: Prestwick) was inactive: 0 each time.
For the compound `O=C(O)CCCC[C@@H]1SC[C@@H]2NC(=O)N[C@@H]21` [Biotin], the neuronal differentiation score in the test with ReNCell VM [1] (library: Phytochemical) and with ReNCell VM [1] (library: Prestwick) was inactive: 0 each time. Also, the “dopaminergic neuron differentiation score” value with ReNCell VM [2] (library: Phytochemical) and in the test on ReNCell VM [2] (library: Prestwick) was inactive: 0 throughout.
Turning to `CC1=NN(c2ccccc2)C(=O)C1`, in the test with ReNCell VM [1] (library: Spectrum), the neuronal differentiation score was inactive: 0. The “dopaminergic neuron differentiation score” value in the test with ReNCell VM [2] (library: Spectrum) was inactive: 0.
